In assay [1] the target is Transgelin (human (endogenous in HCT116)) (UniProt Q01995). The experiment in a line: proximity ligation; Duolink PLA in colorectal cancer cells with primary antibodies (1:100) and two PLA probes; DAPI staining, confocal microscopy.
Assay [2] shares this target. The experiment in a line: co-IP; HCT116 cell lysate in 0.3% Nonidet P-40 lysis buffer with protease inhibitors; control or specific antibodies on protein A/G agarose, 4 °C, 12 h; washed five times with 0.1% Nonidet P-40 buffer; Western blot for COMP and TAGLN. On the technique in general: In western blotting, separated proteins are transferred to a membrane and probed.

By UniProt entry, the sequences of proteins in these tests, tags left out. Residues count along the entry.
UniProt Q01995: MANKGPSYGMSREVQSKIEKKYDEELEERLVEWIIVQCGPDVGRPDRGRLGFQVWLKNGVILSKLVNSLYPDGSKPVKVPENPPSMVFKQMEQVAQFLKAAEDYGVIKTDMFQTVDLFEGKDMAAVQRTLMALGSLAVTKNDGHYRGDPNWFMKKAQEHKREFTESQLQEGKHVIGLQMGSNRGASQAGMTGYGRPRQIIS
UniProt P49747, residues 21-757: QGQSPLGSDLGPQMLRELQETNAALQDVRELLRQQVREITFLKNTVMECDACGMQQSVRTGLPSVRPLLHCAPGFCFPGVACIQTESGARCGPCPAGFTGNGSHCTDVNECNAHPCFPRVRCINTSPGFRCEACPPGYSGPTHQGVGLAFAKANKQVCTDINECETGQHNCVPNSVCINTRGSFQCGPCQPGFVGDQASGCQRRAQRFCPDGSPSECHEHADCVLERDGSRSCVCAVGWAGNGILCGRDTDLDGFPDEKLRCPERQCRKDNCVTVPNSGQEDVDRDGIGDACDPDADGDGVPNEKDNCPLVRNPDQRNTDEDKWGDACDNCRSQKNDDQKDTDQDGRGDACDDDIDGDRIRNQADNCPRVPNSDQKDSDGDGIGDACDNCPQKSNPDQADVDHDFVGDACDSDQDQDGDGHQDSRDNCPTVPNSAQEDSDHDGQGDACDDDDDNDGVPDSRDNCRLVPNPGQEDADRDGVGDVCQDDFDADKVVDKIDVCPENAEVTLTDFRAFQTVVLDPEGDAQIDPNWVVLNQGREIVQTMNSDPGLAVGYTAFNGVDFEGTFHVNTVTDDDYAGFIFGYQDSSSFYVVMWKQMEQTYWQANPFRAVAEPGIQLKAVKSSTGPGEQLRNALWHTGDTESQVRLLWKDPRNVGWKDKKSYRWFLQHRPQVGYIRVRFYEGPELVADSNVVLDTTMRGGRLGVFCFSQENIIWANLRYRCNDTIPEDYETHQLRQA

Assay [3] deals with Cartilage oligomeric matrix protein (human (endogenous in HCT116)) (UniProt P49747). Described as above.

These are yes or no findings as the source states them, for the method shown. In cells and extracts the contact can be indirect. Some binding calls cover weakened binding; strength is not graded here.

As to “Cartilage oligomeric matrix protein (from UniProt P49747 21-757)”, the binding entry in assay [1] and in assay [2] was “binds” in each case.

On to Transgelin (from UniProt Q01995 1-201), for which the binding result in assay [3] is “binds”.

The values above are taken from PMC7392026.
